The reference is the same well before dosing, and untreated signal decays as well.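 Fibroblast labels denote human fibroblasts, mainly primary ones from uterus (C12385, HUF), lung (H6013), bone (Hs27A), adrenal (HADF) and skin (WS1), plus mammary HMF and breast cancer-associated Hs343T. Cancer cells are basal-like or mesenchymal-like triple-negative breast cancer lines. A hit is a response shift exceeding 3x replicate standard deviation. The tissue of the other fibroblasts is not given here.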
Tested on: Hs578T
Assay: relative JC-1 red fluorescence (viability) vs pre-drug, coculture with fibroblast (fraction); higher = more viable cancer cells
Procedure: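 JC-1 labelled TNBC cells cocultured 1:1 (1,500 cells each) with CellTrace Violet stained primary or stromal fibroblasts in 384-well plates in FluoroBrite medium, treated with one of 42 anticancer drugs at 0.1, 1, 10 or 100 uM. JC-1 red fluorescence (mitochondrial integrity in cancer cells only) was read by plate reader every 8 h for 72 h. Values are normalised to each well's pre-drug value. The stock of one drug was tenfold lower, so its dose labels may be too high.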

O=NN(CCCl)C(=O)NC1CCCCC1 [Lomustine]
relative JC-1 red fluorescence
Conditions | 8 h | 16 h | 24 h | 32 h | 40 h | 48 h | 56 h | 64 h | 72 h
0.1 µM | 0.9219 | 0.838 | 0.788 | 0.748 | 0.673 | 0.631 | 0.606 | 0.56 | 0.547
1 µM | 0.891 | 0.763 | 0.704 | 0.663 | 0.611 | 0.57 | 0.541 | 0.499 | 0.475

relative JC-1 red fluorescence
Conditions | 8 h | 16 h | 24 h | 32 h | 40 h | 48 h | 56 h | 64 h | 72 h
0.1 µM, coculture fibroblast: C12385 | 0.8004 | 0.7301 | 0.698 | 0.601 | 0.538 | 0.508 | 0.483 | 0.476 | 0.47
0.1 µM, coculture fibroblast: H6013 | 0.8398 | 0.82943 | 0.808 | 0.79672 | 0.776 | 0.771 | 0.758 | 0.753 | 0.73
0.1 µM, coculture fibroblast: H6019 | 0.798 | 0.732 | 0.711 | 0.61 | 0.572 | 0.542 | 0.515 | 0.495 | 0.469
0.1 µM, coculture fibroblast: H6076 | 0.866 | 0.812 | 0.785 | 0.778 | 0.743 | 0.754 | 0.745 | 0.749 | 0.751
0.1 µM, coculture fibroblast: H6231 | 0.867 | 0.8048 | 0.789 | 0.77 | 0.717 | 0.704 | 0.673 | 0.661 | 0.658
0.1 µM, coculture fibroblast: HADF | 0.851 | 0.796 | 0.733 | 0.679 | 0.659 | 0.642 | 0.622 | 0.62 | 0.611
0.1 µM, coculture fibroblast: HCFa | 0.802 | 0.7294 | 0.678 | 0.6225 | 0.568 | 0.542 | 0.523 | 0.515 | 0.493
0.1 µM, coculture fibroblast: HCPF | 0.906 | 0.818 | 0.756 | 0.712 | 0.653 | 0.633 | 0.615 | 0.584 | 0.566
0.1 µM, coculture fibroblast: HHSteC | 0.861 | 0.812 | 0.756 | 0.703 | 0.656 | 0.626 | 0.605 | 0.589 | 0.5695
0.1 µM, coculture fibroblast: HMF | 0.8678 | 0.807 | 0.755 | 0.735 | 0.6699 | 0.6496 | 0.627 | 0.606 | 0.5955
0.1 µM, coculture fibroblast: HPFa | 0.885 | 0.826 | 0.769 | 0.713 | 0.683 | 0.652 | 0.619 | 0.596 | 0.561
0.1 µM, coculture fibroblast: HUF | 0.856 | 0.755 | 0.771 | 0.663 | 0.601 | 0.583 | 0.556 | 0.561 | 0.562
0.1 µM, coculture fibroblast: Hs27A | 0.875 | 0.801 | 0.745 | 0.703 | 0.66 | 0.648 | 0.622 | 0.609 | 0.567
0.1 µM, coculture fibroblast: Hs343T | 0.882 | 0.799 | 0.76 | 0.746 | 0.687 | 0.671 | 0.651 | 0.637 | 0.639
0.1 µM, coculture fibroblast: WS1 | 0.7798 | 0.71 | 0.691 | 0.595 | 0.547 | 0.531 | 0.504 | 0.509 | 0.513
1 µM, coculture fibroblast: C12385 | 0.831 | 0.728 | 0.6725 | 0.5805 | 0.5077 | 0.4753 | 0.447 | 0.435 | 0.426
1 µM, coculture fibroblast: H6013 | 0.8745 | 0.804 | 0.765 | 0.736 | 0.696 | 0.681 | 0.661 | 0.663 | 0.638
1 µM, coculture fibroblast: H6019 | 0.75 | 0.648 | 0.64 | 0.554 | 0.523 | 0.498 | 0.471 | 0.453 | 0.427
1 µM, coculture fibroblast: H6076 | 0.88 | 0.837 | 0.812 | 0.8066 | 0.785 | 0.797 | 0.782 | 0.789 | 0.787
1 µM, coculture fibroblast: H6231 | 0.912 | 0.83 | 0.739 | 0.696 | 0.631 | 0.599 | 0.546 | 0.517 | 0.489
1 µM, coculture fibroblast: HADF | 0.874 | 0.774 | 0.7156 | 0.657 | 0.601 | 0.569 | 0.532 | 0.518 | 0.493
1 µM, coculture fibroblast: HCFa | 0.847 | 0.76 | 0.694 | 0.64 | 0.576 | 0.553 | 0.528 | 0.51 | 0.474
1 µM, coculture fibroblast: HCPF | 0.9036 | 0.8096 | 0.7619 | 0.726 | 0.682 | 0.653 | 0.636 | 0.599 | 0.582
1 µM, coculture fibroblast: HHSteC | 0.8806 | 0.7942 | 0.741 | 0.6904 | 0.631 | 0.605 | 0.579 | 0.554 | 0.519
1 µM, coculture fibroblast: HMF | 0.847 | 0.7597 | 0.704 | 0.682 | 0.624 | 0.6 | 0.561 | 0.542 | 0.528
1 µM, coculture fibroblast: HPFa | 0.892 | 0.816 | 0.731 | 0.661 | 0.605 | 0.555 | 0.506 | 0.47 | 0.426
1 µM, coculture fibroblast: HUF | 0.855 | 0.755 | 0.7 | 0.595 | 0.528 | 0.492 | 0.4546 | 0.4441 | 0.4356
1 µM, coculture fibroblast: Hs27A | 0.887 | 0.8321 | 0.7661 | 0.7286 | 0.672 | 0.654 | 0.611 | 0.606 | 0.561
1 µM, coculture fibroblast: Hs343T | 0.911 | 0.803 | 0.7287 | 0.7043 | 0.629 | 0.608 | 0.56 | 0.534 | 0.536
1 µM, coculture fibroblast: WS1 | 0.786 | 0.705 | 0.641 | 0.543 | 0.485 | 0.467 | 0.439 | 0.438 | 0.4374

From the supplement of paper PMC6078165
